PubChem BioAssay AID504791, Drosophila RNAi Screening Center, 2011

- Screen: 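Genes whose knock-down strengthens or weakens small-RNA reporter silencing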 (primary screen)
- Cells: Drosophila S2-derived reporter cells
- Knock-down reagent: long dsRNA against Drosophila genes, about 150-250 ng dsRNA per well (siRNA assay); about 80-120 ng (miRNA assay)
- Duration: about 5 days (siRNA assay); about 4 days (miRNA assay)
- Treatment: copper sulfate induction of reporters: 25 µM (siRNA assay); 200 mM stated (miRNA assay), 1-2 days before reading
- Detection: 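Per-well ratio of Renilla over firefly light, expressed relative to that plate's average ratio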
- Scale: siRNA reporter hit score: higher = 3 marks a strong hit with raised ratio; -3 a strong hit with lowered ratio
- Rule for the call: 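First-pass picks had plate-scaled ratios over 1.5 for the siRNA assay, over 1.6 for the miRNA assay, or under 0.6; two distinct dsRNAs had to score alike on retest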
In all, the deposit lists about 23,000 reagents; this is a random part of those that have a named target and a result. Over the whole deposit, 199 (0.86%) were called active. 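Plate-scaled ratios behind the calls are not deposited; printed light signals are raw; many rows marked increased or decreased are still called inactive.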 A number with no mark means an inactive call. Reagents against one gene are numbered here. Reagent sequences are not shown.

target gene	dsRNA no.	siRNA reporter hit score	stable siRNA reporter change	miRNA reporter change	stable assay Renilla, run 1 (luminescence)	stable assay firefly, run 1 (luminescence)
Gyc89Da (Guanylyl cyclase at 89Da)	1				6322	4.10e5
CG17085 (retired record)	1				7743	5.28e5
CG17085 (retired record)	2				7202	4.49e5
CG13295	1				7760	5.53e5
Dhc62B (Dynein heavy chain at 62B)	1				5351	3.59e5
Oseg6 (Outer segment 6)	1				6387	3.49e5
CG15199	1				4527	3.40e5
Cnot4 (CCR4-NOT transcription complex subunit 4)	1				4935	4.13e5
Cnot4 (CCR4-NOT transcription complex subunit 4)	2				4456	3.41e5
CG12708	1				4491	4.45e5
lectin-29Ca	1				6947	3.60e5
Art4 (Arginine methyltransferase 4)	1				5907	4.57e5
EndoA (Endophilin A)	1				10259	4.57e5
CG9416	1				8262	5.33e5
Sgt (small glutamine-rich tetratricopeptide containing protein)	1				46366	2.27e6
CG7966	1				7335	3.91e5
mtgo (miles to go)	1				4347	2.33e5
mtgo (miles to go)	2				3931	2.99e5
mtgo (miles to go)	3				9687	2.22e6
mtgo (miles to go)	4				9606	5.10e5
mtgo (miles to go)	5				7759	3.97e5
CG30357	1				3651	2.95e5
MFS18 (Major Facilitator Superfamily Transporter 18)	1				65489	1.02e6
Gld2 (GLD2 poly(A) polymerase)	1				5327	2.01e5
Gld2 (GLD2 poly(A) polymerase)	2				4447	3.08e5
px (plexus)	1				13840	3.70e5
px (plexus)	2				3052	2.90e5
CG12702	1				5715	4.71e5
TSG101 (Tumor susceptibility gene 101)	1				7443	4.75e5
l(1)G0289 (lethal (1) G0289)	1				6883	4.19e5
png (pan gu)	1				5727	3.43e5
CG5937	1				6492	3.13e5
Cad96Cb (Cadherin 96Cb)	1				6527	3.06e5
Cad96Cb (Cadherin 96Cb)	2				7000	3.64e5
CG42329	1				7530	4.13e5
CG42329	2				7250	3.64e5
RabX4	1				9294	5.54e5
CG33454	1				2300	2.79e5
Tollo	1				8378	4.10e5
emei	1				3652	4.24e5
emei	2				3851	3.17e5
CG12920	1				6399	3.30e5
rgn (regeneration)	1				10703	4.74e5
CG17751	1				6778	3.81e5
CG17751	2				5352	4.35e5
MnM (myomesin and myosin binding protein)	1				6118	3.83e5
NHP2	1				8118	4.71e5
pn (prune)	1				10041	5.35e5
Dp (DP transcription factor)	1		reporter ratio lowered past the hit cutoff (active)	reporter ratio lowered past the hit cutoff	5836	6.34e5
Pig1 (Pre-intermoult gene 1)	1				3939	2.92e5
Wwox (WW domain containing oxidoreductase)	1				66007	3.01e5
Wwox (WW domain containing oxidoreductase)	2				5212	5.43e5
stumps	1				4619	3.55e5
stumps	2				8318	3.59e5
stumps	3				9254	4.53e5
ATPsynbeta (ATP synthase, beta subunit)	1				3195	1.83e5
CG11951	1				7300	3.57e5
CG15293	1				7418	4.18e5
Syx7 (Syntaxin 7)	1				9740	3.94e5
Taf1 (TBP-associated factor 1)	1				5495	5.07e5
CG5815	1				6563	4.11e5
Rpi (Ribose-5-phosphate isomerase)	1				4848	3.07e5
CG3841	1				6963	3.22e5
CG7881	1				5930	3.10e5
Swim (Secreted Wg-interacting molecule)	1				8275	1.03e6
CG31100	1				7922	4.66e5
CG31100	2				6516	5.57e5
Ttc19 (Tetratricopeptide repeat domain 19)	1				7635	4.69e5
Larp7 (La related protein 7)	1				6203	4.81e5
CG14567	1				6199	3.57e5
CG30020	1				3879	4.36e5
CG30020	2	-3			7154	4.51e5
CG7130	1				7534	4.63e5
lig (lingerer)	1		reporter ratio raised past the hit cutoff		14354	3.30e5
lig (lingerer)	2				4136	2.58e5
CG8568	1				8887	5.46e5
lab (labial)	1				7631	3.37e5
dgt4 (dim gamma-tubulin 4)	1				4839	2.60e5
CG11841	1				8459	6.52e5
fz3 (frizzled 3)	1				5547	3.27e5
CG6048	1				5955	3.01e5
CG15278	1				7982	5.05e5
eIF3e (eukaryotic translation initiation factor 3 subunit e)	1				5071	3.45e5

Sorted by “stable assay firefly, run 1 (luminescence)” (lowest first): 6 of the entries above
target gene	dsRNA no.	siRNA reporter hit score	stable siRNA reporter change	miRNA reporter change	stable assay Renilla, run 1 (luminescence)	stable assay firefly, run 1 (luminescence)
CG14567	1				6199	3.57e5
CG30020	1				3879	4.36e5
CG30020	2	-3			7154	4.51e5
Ttc19 (Tetratricopeptide repeat domain 19)	1				7635	4.69e5
Larp7 (La related protein 7)	1				6203	4.81e5
CG31100	2				6516	5.57e5
